# Library screen at single concentrations

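Whole-cell growth test on Mycobacterium tuberculosis, read after 3 days in glucose-containing 7H9 medium; the read-out is not stated. Compounds at 50 µM. Direction is inferred from retests: higher values go with more growth inhibition. About 69,000 compounds were tested under these conditions; 1.1% (about 760) showed 50% or more at least once.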

Values are the deposited “Percent Effect”, in %. The record does not define 0% and 100%; most values in the screen are far below 50% and negative numbers occur (in some assays of this library far below -100). Compounds were drawn at random from those tested, without regard to their results. Two or more numbers in one place are separate tests of the same structure; such repeats can differ widely.

Cc1cc(C(=O)N2Cc3ccccc3OC3(CCOCC3)C2)nc(N)n1 gave 24.67%.
CO[C@H]1CNC[C@@H]1NC(=O)c1cc(C)nc2ccc(C)cc12 gave -17.16%.
Cc1ccnc(N2CCC(=O)N(Cc3ccc(F)cc3)C(C(C)C)C2)n1 (configuration not stated) gave -15.17% and -0.6557%.
Cc1cccc(N2CCN(C(=O)CN3CCN(CCO)CC3)CC2)c1 gave 19.96%.
O=C(c1cc(Cn2ccc3ccccc32)[nH]n1)N1CCOCC1 gave -4.668%.
Cc1nc(NC(=O)C(C)N(C)Cc2cccc(C#N)c2)sc1C (configuration not stated) gave 11.84%.
CC(C)Cc1cc(C(=O)NCc2nnc[nH]2)[nH]n1 gave -11.02% and 1.064%.
O=C(NCCOCCO)c1cnc(-c2ccccc2)nc1O gave -21.5%.
CCc1cc(=O)n(CC(=O)NCC2CCCO2)c(-c2cccc(F)c2)n1 (configuration not stated) gave 15.79%.
COCCC1(CO)CCCN(Cc2ccc(C(F)(F)F)nc2)C1 (configuration not stated) gave 12.02% and -2.399%.
COCCc1ncc(CN2CCC3(CCCN(CC4CC4)C3)C2)cn1 (configuration not stated) gave -10.68%.
O=S1(=O)CCN(CCCc2ccc(Cl)cc2)CC1 gave 8.355% and 5.398%.
CCN1CCc2c(c(COC)nn2C)C1 gave 13.41%.
Cc1nc(CCNC(Cc2ccncc2)C(F)(F)F)cs1 (configuration not stated) gave 8.094%.
CN(CCN1CCOCC1)C(=O)CCCc1ccccc1 gave 2.382% and 7.572%.
CN(C)C(=O)N1CCOCC2(CCN(c3ccccn3)C2)C1.O=C(O)C(F)(F)F (configuration not stated) gave 10.35%.
C[C@@H]1CN(C2(C(=O)N3CCCCCC3)Cc3ccccc3C2)C[C@H](C)O1 gave -0.03508% and 22.43%.
COCCC(=O)N1CCC2(COCc3cnc(NCC4CC4)nc32)C1 (configuration not stated) gave -7.945%.
CC(Oc1cc(Cl)cc(Cl)c1)C(=O)NCCS(N)(=O)=O (configuration not stated) gave -4.123%.
COc1ccccc1CC1CCCN(CCC#N)C1 (configuration not stated) gave 38.08%.
Cc1cccc(C2(C(=O)NS(=O)(=O)c3cnn(C)c3)CCCC2)c1 gave -10.27%.
CN(Cc1c(F)cccc1Cl)C(=O)c1cnn(CCN2CCOCC2)c1 gave 6.137% and -2.094%.
CSCC(=O)NS(=O)(=O)c1ccc(C#N)c(C(F)(F)F)c1 gave -39.61%.
O=C(O)C(F)(F)F.O=C(O)C(F)(F)F.O=C(O)C(F)(F)F.[H][C@@]12CCN(Cc3nccn3C)C[C@]1([H])[C@@H](CNc1ncccn1)OC2 gave 1.208%.
Cc1cccc(C(Nc2nccc(C)n2)C2CC2)n1 (configuration not stated) gave -4.685%.
CC(NCCN1CCN(C(=O)C2CCCC2)CC1)c1cnn(C)c1 (configuration not stated) gave -33.21% and -7.636%.
COc1ccc(C(=O)NCCNC(=O)c2cncnc2C)cc1 gave -12.95%.
CC(C)c1noc(C(C)N2CCN(Cc3nnc(C4CC4)o3)CC2)n1 (configuration not stated) gave -3.303%.
[H][C@@]12COC[C@]1([H])[C@@H](OCc1ccccn1)CN2C(=O)c1ccnnc1 gave 5.98%.
Cc1cnc(-c2nc(NC3CC3)ncc2-c2cc(C)no2)cn1 gave -43.96%.
[H][C@@]12CCN(S(=O)(=O)c3cccc(F)c3)C[C@]1(C(=O)NC)CCO2 gave -14.44%.
Cc1ccccc1C1(CNC(=O)CCN2C(=O)CCC2=O)CC1 gave 2.013%.
Cc1cc(NCCO)nc(N2CCN(C)CC2)c1C#N gave -7.875%.
CC(C)(C)c1oc(C(N)=O)cc1CN1CCCCC1CN1CCOCC1 (configuration not stated) gave -3.24% and -37.36%.
NC(=O)CN1CCCN(C(=O)Cc2cccc(C(F)(F)F)c2)CC1 gave -18.05%.
Cn1ccnc1CN1CCN(CCOc2ccccc2F)CC1 gave 25.4%.
COc1ccc(C(=O)N2CCCCC2c2nc(C)cs2)nn1 (configuration not stated) gave 20.75%.
CN(Cc1ccc(Cl)s1)C(=O)CN(C)C1CCCc2ccccc21 (configuration not stated) gave 20.24%.
Cc1ccc(-c2ncc(CN3CCOC(c4ccco4)C3)s2)o1 (configuration not stated) gave -1.421%.
CN(C)C(=O)N1CCC2(CC1)C(=O)N(CC1CCOC1)c1ccccc12 (configuration not stated) gave 26.3%.
O=C(O)C(F)(F)F.O=C(O)C(F)(F)F.[H][C@@]12CN(Cc3nccs3)CCC[C@]1(C(=O)OCC)CN(C(C)C)C2 gave -6.971% and -51.28%.
c1cc(CCN2CCC(c3n[nH]c(C4CC4)n3)CC2)ccn1 gave -45.45%.
COc1ccc(CN2CCSCC2)c(OC)c1 gave 14.19%.
O=C1CN(C(=O)c2cc3ccc(Br)cc3[nH]2)CCN1 gave -6.021%.
O=C(N[C@@H]1CN(Cc2ccc3[nH]ccc3c2)C[C@H]1O)c1cscn1 gave 27.6%.
Cc1cc(C)n(-c2ccc(CNCc3cccc(C#N)c3)cn2)n1 gave 25.37%.
Cn1cc(CN2CCCC(CCCc3ccccn3)(C(N)=O)C2)cn1 (configuration not stated) gave 8.07%.
CNC(=O)CC1CCN(Cc2nc(-c3ccc(SC)cc3)oc2C)CC1 gave 19.19%.
COc1ccc(NC(=O)CSc2nc(C)c(C)c(C)c2C#N)cn1 gave 2.925%.
CC1=Nc2c(c(=O)[nH]n2C(C)C)C(c2ccc3c(c2)n(C)c(=O)n3C)S1 (configuration not stated) gave -10.36%.

Once more, the final 5:

For Cc1cc(C)n(-c2ccc(CNCc3cccc(C#N)c3)cn2)n1 the result was 25.37%.
For Cn1cc(CN2CCCC(CCCc3ccccn3)(C(N)=O)C2)cn1 (configuration not stated) the result was 8.07%.
For CNC(=O)CC1CCN(Cc2nc(-c3ccc(SC)cc3)oc2C)CC1 the result was 19.19%.
For COc1ccc(NC(=O)CSc2nc(C)c(C)c(C)c2C#N)cn1 the result was 2.925%.
For CC1=Nc2c(c(=O)[nH]n2C(C)C)C(c2ccc3c(c2)n(C)c(=O)n3C)S1 (configuration not stated) the result was -10.36%.

Data taken from ChEMBL document CHEMBL3988442, “University of Dundee, Small-Polar-MMV Screening Library” (2021).